Test results from the supplement of paper PMC7666118.
The other results are listed elsewhere or left out.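 Rule for the calls: active = dose-dependent thermal stabilisation significant by F-test of dose-response against flat model at 10% FDR; inactive = not significant.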

By UniProt entry, the sequences of proteins in these tests, tags left out. Where a name states a change or a piece, a line headed by the entry shows the natural chain unless it says otherwise.
UniProt O60239: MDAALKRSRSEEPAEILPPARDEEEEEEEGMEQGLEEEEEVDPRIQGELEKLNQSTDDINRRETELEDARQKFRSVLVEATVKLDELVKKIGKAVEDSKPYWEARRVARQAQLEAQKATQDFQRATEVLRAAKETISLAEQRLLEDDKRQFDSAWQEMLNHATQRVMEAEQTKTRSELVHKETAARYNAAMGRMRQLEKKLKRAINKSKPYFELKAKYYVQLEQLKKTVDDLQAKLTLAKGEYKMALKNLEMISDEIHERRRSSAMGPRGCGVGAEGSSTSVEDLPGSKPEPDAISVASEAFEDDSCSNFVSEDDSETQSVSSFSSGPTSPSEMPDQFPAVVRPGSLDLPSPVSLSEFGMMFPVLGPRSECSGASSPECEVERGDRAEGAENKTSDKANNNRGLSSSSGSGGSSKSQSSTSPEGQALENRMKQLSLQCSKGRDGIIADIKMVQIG
UniProt Q9H299: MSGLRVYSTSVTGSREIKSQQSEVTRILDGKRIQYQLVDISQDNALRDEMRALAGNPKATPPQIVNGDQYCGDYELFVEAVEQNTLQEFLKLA
UniProt Q99719: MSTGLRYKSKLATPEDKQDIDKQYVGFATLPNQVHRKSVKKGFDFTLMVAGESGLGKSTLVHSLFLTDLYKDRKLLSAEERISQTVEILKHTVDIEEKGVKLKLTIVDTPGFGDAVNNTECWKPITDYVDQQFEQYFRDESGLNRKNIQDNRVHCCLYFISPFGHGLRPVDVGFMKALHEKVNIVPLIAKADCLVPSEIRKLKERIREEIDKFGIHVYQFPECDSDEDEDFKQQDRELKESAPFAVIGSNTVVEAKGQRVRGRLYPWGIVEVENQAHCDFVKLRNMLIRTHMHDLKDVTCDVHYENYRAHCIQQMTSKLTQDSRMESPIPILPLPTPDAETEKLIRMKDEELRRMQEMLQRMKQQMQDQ
UniProt Q6P3W7: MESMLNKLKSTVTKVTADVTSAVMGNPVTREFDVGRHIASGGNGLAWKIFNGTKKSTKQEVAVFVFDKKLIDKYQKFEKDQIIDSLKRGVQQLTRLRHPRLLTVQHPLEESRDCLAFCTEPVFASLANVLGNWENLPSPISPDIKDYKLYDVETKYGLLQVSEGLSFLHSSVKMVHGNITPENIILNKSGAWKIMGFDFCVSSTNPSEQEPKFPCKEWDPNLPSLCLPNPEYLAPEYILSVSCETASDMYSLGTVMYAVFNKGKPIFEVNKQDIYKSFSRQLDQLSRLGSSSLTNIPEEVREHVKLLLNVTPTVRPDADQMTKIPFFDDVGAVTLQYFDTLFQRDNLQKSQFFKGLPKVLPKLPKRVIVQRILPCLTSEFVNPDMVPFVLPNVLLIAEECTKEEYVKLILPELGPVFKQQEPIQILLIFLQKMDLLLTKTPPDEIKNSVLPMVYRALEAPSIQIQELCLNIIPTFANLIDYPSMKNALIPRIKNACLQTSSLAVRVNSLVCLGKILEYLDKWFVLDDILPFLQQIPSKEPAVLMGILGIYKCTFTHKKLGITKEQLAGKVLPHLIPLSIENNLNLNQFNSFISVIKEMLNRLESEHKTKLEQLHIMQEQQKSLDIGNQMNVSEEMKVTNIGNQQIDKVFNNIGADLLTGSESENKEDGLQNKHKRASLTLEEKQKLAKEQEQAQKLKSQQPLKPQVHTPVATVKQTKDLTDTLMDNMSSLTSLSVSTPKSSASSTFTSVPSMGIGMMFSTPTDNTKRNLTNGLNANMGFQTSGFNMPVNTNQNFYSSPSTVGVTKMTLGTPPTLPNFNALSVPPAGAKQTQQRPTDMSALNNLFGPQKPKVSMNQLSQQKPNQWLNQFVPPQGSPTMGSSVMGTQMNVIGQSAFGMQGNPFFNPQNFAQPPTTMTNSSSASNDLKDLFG
UniProt Q969K3: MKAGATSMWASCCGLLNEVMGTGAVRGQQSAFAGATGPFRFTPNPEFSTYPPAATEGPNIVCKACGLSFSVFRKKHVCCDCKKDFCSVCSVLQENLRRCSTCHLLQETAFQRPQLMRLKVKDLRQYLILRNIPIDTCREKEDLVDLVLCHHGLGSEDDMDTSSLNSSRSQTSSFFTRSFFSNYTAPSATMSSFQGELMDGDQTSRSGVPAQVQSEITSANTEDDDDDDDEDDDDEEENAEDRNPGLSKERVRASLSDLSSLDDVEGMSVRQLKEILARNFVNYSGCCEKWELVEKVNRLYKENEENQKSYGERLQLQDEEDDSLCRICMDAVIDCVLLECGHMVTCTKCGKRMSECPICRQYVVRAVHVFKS
UniProt Q5PRF9: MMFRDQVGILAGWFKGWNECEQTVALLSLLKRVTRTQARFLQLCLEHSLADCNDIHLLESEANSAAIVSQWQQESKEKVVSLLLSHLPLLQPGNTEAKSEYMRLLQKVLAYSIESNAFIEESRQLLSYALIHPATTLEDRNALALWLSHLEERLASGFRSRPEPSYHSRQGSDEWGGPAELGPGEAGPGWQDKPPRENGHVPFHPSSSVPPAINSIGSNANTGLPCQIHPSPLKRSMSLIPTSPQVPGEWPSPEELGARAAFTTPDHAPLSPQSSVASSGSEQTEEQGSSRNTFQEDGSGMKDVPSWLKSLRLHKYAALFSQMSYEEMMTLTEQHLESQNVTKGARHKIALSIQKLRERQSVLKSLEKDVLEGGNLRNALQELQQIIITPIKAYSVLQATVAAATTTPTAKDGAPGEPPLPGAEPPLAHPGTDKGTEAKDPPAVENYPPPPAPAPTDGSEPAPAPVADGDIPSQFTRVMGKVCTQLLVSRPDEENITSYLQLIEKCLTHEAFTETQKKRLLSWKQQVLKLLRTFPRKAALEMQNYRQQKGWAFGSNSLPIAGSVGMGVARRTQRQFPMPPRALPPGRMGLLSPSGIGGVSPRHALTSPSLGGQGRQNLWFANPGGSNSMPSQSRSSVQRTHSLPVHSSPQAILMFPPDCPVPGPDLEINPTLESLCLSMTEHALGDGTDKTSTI
UniProt O15027: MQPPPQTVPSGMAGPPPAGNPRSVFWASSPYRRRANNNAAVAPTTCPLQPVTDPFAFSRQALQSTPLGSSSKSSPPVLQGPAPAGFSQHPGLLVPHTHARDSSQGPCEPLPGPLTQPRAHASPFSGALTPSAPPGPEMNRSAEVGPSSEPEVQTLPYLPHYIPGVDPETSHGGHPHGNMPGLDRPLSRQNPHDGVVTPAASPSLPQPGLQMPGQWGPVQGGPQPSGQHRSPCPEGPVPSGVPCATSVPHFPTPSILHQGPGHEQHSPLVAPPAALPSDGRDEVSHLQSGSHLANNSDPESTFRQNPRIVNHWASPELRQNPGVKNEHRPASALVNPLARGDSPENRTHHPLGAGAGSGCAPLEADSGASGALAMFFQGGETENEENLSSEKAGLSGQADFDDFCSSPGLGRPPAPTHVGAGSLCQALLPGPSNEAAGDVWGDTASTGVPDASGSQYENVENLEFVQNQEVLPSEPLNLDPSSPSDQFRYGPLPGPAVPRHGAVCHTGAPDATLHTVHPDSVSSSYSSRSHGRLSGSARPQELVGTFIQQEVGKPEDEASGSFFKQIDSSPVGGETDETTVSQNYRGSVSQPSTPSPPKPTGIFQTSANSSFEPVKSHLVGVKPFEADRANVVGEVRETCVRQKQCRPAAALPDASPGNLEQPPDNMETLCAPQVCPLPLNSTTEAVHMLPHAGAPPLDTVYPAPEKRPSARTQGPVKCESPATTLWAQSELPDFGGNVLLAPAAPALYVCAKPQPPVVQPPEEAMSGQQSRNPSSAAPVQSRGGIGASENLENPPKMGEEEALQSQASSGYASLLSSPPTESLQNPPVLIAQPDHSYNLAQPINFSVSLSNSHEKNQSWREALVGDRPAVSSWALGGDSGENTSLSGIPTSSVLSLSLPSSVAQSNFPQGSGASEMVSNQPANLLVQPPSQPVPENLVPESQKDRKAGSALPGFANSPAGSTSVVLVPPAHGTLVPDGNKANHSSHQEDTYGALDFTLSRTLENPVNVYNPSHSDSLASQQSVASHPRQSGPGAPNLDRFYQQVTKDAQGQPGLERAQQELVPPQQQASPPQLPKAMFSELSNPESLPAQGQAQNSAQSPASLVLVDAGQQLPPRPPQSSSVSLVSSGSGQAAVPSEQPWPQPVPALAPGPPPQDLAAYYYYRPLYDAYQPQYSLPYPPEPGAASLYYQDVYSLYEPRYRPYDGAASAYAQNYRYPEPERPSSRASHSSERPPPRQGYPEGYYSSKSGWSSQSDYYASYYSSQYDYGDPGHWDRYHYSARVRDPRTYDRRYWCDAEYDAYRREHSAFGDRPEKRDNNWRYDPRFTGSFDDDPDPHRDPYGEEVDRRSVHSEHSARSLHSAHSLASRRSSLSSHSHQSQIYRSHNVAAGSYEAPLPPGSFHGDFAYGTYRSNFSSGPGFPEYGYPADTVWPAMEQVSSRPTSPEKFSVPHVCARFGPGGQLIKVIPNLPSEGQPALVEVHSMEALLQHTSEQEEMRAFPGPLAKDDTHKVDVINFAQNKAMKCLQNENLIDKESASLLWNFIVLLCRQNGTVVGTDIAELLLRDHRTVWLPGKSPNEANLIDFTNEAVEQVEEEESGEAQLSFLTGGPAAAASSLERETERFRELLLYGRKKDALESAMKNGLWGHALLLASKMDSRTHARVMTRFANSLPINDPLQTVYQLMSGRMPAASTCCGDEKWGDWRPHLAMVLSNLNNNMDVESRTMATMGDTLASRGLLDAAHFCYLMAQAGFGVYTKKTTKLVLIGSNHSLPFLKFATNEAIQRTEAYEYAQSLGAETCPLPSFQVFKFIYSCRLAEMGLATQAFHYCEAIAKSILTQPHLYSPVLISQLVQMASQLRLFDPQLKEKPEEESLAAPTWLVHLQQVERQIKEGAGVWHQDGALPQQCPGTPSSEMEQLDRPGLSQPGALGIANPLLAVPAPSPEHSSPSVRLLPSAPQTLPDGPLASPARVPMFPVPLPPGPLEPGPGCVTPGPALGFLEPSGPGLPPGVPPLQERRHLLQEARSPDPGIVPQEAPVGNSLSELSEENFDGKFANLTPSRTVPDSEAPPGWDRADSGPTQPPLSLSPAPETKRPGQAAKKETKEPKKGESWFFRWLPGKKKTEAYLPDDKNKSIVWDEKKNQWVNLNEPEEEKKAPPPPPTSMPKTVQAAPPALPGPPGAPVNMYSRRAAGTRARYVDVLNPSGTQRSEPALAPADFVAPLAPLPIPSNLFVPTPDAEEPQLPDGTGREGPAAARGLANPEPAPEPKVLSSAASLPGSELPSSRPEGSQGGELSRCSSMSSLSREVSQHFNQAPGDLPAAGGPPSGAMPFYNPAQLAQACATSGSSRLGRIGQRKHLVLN
UniProt Q9Y3B8: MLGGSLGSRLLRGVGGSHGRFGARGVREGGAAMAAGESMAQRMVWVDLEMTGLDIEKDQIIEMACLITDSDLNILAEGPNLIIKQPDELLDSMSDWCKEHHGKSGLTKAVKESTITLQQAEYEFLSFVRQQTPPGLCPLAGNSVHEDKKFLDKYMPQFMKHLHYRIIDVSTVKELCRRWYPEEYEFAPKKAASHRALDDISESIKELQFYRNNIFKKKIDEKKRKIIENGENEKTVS
UniProt Q9Y3V2: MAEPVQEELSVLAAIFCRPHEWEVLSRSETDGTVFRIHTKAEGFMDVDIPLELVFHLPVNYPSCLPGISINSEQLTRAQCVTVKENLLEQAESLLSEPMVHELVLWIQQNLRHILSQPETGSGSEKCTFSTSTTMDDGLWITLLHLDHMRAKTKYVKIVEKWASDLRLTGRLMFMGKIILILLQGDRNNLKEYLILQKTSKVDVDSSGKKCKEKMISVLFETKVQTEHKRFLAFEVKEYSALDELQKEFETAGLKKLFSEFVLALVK
UniProt Q5VWQ0: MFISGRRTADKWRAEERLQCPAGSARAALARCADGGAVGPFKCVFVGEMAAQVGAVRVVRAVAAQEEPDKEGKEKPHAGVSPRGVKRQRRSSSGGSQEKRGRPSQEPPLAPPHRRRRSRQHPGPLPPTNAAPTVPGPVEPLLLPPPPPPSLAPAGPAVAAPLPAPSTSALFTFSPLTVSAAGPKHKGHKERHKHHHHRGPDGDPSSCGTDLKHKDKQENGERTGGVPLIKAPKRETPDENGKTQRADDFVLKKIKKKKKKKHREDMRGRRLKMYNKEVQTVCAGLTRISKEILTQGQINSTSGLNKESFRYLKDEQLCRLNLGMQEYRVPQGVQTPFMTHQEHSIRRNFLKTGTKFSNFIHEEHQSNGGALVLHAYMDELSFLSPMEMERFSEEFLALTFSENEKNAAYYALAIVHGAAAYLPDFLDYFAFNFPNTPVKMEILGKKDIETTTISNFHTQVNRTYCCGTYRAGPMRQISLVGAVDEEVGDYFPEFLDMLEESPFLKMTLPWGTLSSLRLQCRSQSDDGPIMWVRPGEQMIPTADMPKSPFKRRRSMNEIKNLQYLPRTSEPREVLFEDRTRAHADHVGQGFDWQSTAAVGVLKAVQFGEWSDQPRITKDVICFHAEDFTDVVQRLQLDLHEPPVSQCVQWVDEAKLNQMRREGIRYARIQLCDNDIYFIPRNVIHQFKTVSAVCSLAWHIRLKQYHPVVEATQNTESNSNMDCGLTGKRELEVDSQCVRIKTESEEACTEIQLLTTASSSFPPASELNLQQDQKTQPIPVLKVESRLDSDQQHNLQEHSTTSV

The targets below were run with Nc1nc2c(ncn2[C@@H]2O[C@H](COP(=O)(O)OP(=O)(O)OP(=O)(O)O)[C@@H](O)[C@H]2O)c(=O)[nH]1 (assay: dose-dependent thermal stabilisation call (2D-TPP, DLPTP, 10% FDR) (binary (1 = stabilised)); higher = stabilised by the compound). Details: system: Jurkat gel-filtered lysate; concentration range 1-500 µM.

Row | Target | dose-dependent thermal stabilisation call
1 | SH3BP5 (UniProt O60239) | inactive: 0
2 | RNASEH2B (UniProt Q5TBB1) | inactive: 0
3 | RPA1 (UniProt P27694) | inactive: 0
4 | SERGEF (UniProt Q9UGK8) | inactive: 0
5 | RPL36A (UniProt P83881) | inactive: 0
6 | SH3GLB1 (UniProt Q9Y371) | active: 1
7 | RPIA (UniProt P49247) | inactive: 0
8 | SH3BGRL3 (UniProt Q9H299) | inactive: 0
9 | SERPINB8 (UniProt P50452) | inactive: 0
10 | SCRN3 (UniProt Q0VDG4) | inactive: 0
11 | SEPTIN5 (UniProt Q99719) | active: 1
12 | RPS19 (UniProt P39019) | inactive: 0
13 | RFC1 (UniProt P35251) | inactive: 0
14 | SCYL2 (UniProt Q6P3W7) | inactive: 0
15 | RIOK2 (UniProt Q9BVS4) | inactive: 0
16 | RNASEH2C (UniProt Q8TDP1) | inactive: 0
17 | RSU1 (UniProt Q15404) | inactive: 0
18 | SH3BP5L (UniProt Q7L8J4) | inactive: 0

Not a retest: an excerpt of the list.
Row | Target | dose-dependent thermal stabilisation call
12 | RPS19 (UniProt P39019) | inactive: 0
13 | RFC1 (UniProt P35251) | inactive: 0

Next part.

Row | Target | dose-dependent thermal stabilisation call
19 | RPL13 (UniProt P26373) | inactive: 0
20 | SDF2L1 (UniProt Q9HCN8) | inactive: 0
21 | RUFY3 (UniProt Q7L099) | inactive: 0
22 | RNF34 (UniProt Q969K3) | inactive: 0
23 | SAMD4B (UniProt Q5PRF9) | inactive: 0
24 | SEC16A (UniProt O15027) | inactive: 0
25 | SAMSN1 (UniProt Q9NSI8) | inactive: 0
26 | REXO2 (UniProt Q9Y3B8) | inactive: 0
27 | RWDD3 (UniProt Q9Y3V2) | inactive: 0
28 | RPS5 (UniProt P46782) | inactive: 0
29 | RRP9 (UniProt O43818) | inactive: 0
30 | RFX7 (UniProt Q2KHR2) | inactive: 0
31 | RRP12 (UniProt Q5JTH9) | inactive: 0
32 | SF3B6 (UniProt Q9Y3B4) | inactive: 0
33 | SETX (UniProt Q7Z333) | inactive: 0
34 | RSBN1 (UniProt Q5VWQ0) | inactive: 0
35 | SCRN1 (UniProt Q12765) | inactive: 0
36 | SEPTIN3 (UniProt Q9UH03) | active: 1
